From US20040209841A1, “Association compound of trehalose or maltitol with metal ion compound” (priority 2001, published 2004)

What was measured:
[1] = Suppressing effect on the formation of scum during the cooking of boiled foods (Experiment 10); conditions: for Calcium in scum / Magnesium in scum / Potassium in scum / Sodium in scum: 10% (w/w) saccharide; for Weight of scum: 30 g pork, 400 ml 10% (w/w) saccharide, boiled five minutes; for Calcium in scum (%) / Magnesium in scum (%) / Potassium in scum (%) / Sodium in scum (%) / Weight of scum (%): no saccharide = 100
[2] = Elution of minerals from boiled foods during the cooking (Experiment 11)
[3] = Suppressing effect on the formation of scum from boiling foods (Experiment 9); conditions: for Weight of scum: 30 g pork + 20 g spinach in 400 ml water, boiled one minute; for Weight of scum RW (%) (relative weight): no saccharide = 100
[4] = Scum formation and elution of minerals from boiled vegetables (Experiment 12), garland chrysanthemum; conditions: for Calcium in filtrate / Calcium in scum / Magnesium in filtrate / Magnesium in scum / Potassium in filtrate / Potassium in scum / Sodium in filtrate / Sodium in scum / Calcium in filtrate (%) / Calcium in scum (%) / Calcium, total amount eluted (%) / Magnesium in filtrate (%) / Magnesium in scum (%) / Magnesium, total amount eluted (%) / Potassium in filtrate (%) / Potassium in scum (%) / Potassium, total amount eluted (%) / Sodium in filtrate (%) / Sodium in scum (%) / Sodium, total amount eluted (%) / Weight of scum (%) / Calcium, total amount of minerals eluted / Magnesium, total amount of minerals eluted / Potassium, total amount of minerals eluted / Sodium, total amount of minerals eluted: garland chrysanthemum; for Weight of scum: garland chrysanthemum 20 g, 400 ml 10% (w/w) saccharide, boiled five minutes; for Calcium in filtrate (%) / Calcium in scum (%) / Calcium, total amount eluted (%) / Magnesium in filtrate (%) / Magnesium in scum (%) / Magnesium, total amount eluted (%) / Potassium in filtrate (%) / Potassium in scum (%) / Potassium, total amount eluted (%) / Sodium in filtrate (%) / Sodium in scum (%) / Sodium, total amount eluted (%) / Weight of scum (%): no saccharide = 100; for Calcium, total amount of minerals eluted / Magnesium, total amount of minerals eluted / Potassium, total amount of minerals eluted / Sodium, total amount of minerals eluted: scum + filtrate
[5] = Scum formation and elution of minerals from boiled vegetables (Experiment 12), spinach; conditions: for Calcium in filtrate / Calcium in scum / Magnesium in filtrate / Magnesium in scum / Potassium in filtrate / Potassium in scum / Sodium in filtrate / Sodium in scum / Calcium in filtrate (%) / Calcium in scum (%) / Calcium, total amount eluted (%) / Magnesium in filtrate (%) / Magnesium in scum (%) / Magnesium, total amount eluted (%) / Potassium in filtrate (%) / Potassium in scum (%) / Potassium, total amount eluted (%) / Sodium in filtrate (%) / Sodium in scum (%) / Sodium, total amount eluted (%) / Weight of scum (%) / Calcium, total amount of minerals eluted / Magnesium, total amount of minerals eluted / Potassium, total amount of minerals eluted / Sodium, total amount of minerals eluted: spinach; for Weight of scum: spinach 20 g, 400 ml 10% (w/w) saccharide, boiled five minutes; for Calcium in filtrate (%) / Calcium in scum (%) / Calcium, total amount eluted (%) / Magnesium in filtrate (%) / Magnesium in scum (%) / Magnesium, total amount eluted (%) / Potassium in filtrate (%) / Potassium in scum (%) / Potassium, total amount eluted (%) / Sodium in filtrate (%) / Sodium in scum (%) / Sodium, total amount eluted (%) / Weight of scum (%): no saccharide = 100; for Calcium, total amount of minerals eluted / Magnesium, total amount of minerals eluted / Potassium, total amount of minerals eluted / Sodium, total amount of minerals eluted: scum + filtrate
[6] = Elution of magnesium from boiling Japanese wheat noodles (Experiment 13); conditions: 5 g raw noodle, 40 ml 10% (w/w) trehalose, boiled two minutes
[7] = filtrate after removing scum, pork, 10% (w/w) saccharide

## OC[C@H]1O[C@H](O[C@H]2[C@H](O)[C@@H](O)C(O)O[C@@H]2CO)[C@H](O)[C@@H](O)[C@@H]1O (mixture of isomers) [Maltose, maltose]
[1]
  Calcium in scum: 0.092 mg
  Magnesium in scum: 0.050 mg
  Potassium in scum: 0.025 mg
  Sodium in scum: 0.283 mg
  Weight of scum: 2.126 g
  Calcium in scum (%): 79%
  Magnesium in scum (%): 89%
  Potassium in scum (%): 109%
  Sodium in scum (%): 115%
  Weight of scum (%): 94%

## OC[C@@H](O)[C@@H](O[C@H]1O[C@H](CO)[C@@H](O)[C@H](O)[C@H]1O)[C@H](O)[C@@H](O)CO [Maltitol, maltitol]
[1]
  Calcium in scum: 0.030 mg
  Magnesium in scum: 0.029 mg
  Potassium in scum: 0.015 mg
  Sodium in scum: 0.183 mg
  Weight of scum: 0.802 g
  Calcium in scum (%): 26%
  Magnesium in scum (%): 52%
  Potassium in scum (%): 65%
  Sodium in scum (%): 74%
  Weight of scum (%): 36%

## OC[C@H]1O[C@@H](O[C@H]2O[C@H](CO)[C@@H](O)[C@H](O)[C@H]2O)[C@H](O)[C@@H](O)[C@@H]1O [Neotrehalose, neotrehalose]
[1]
  Calcium in scum: 0.090 mg
  Magnesium in scum: 0.042 mg
  Potassium in scum: 0.024 mg
  Sodium in scum: 0.237 mg
  Weight of scum: 1.942 g
  Calcium in scum (%): 77%
  Magnesium in scum (%): 75%
  Potassium in scum (%): 104%
  Sodium in scum (%): 96%
  Weight of scum (%): 86%
[2]; [7]
  Ca in filtrate: 0.957 mg
  K in filtrate: 6.060 mg
  Mg in filtrate: 1.148 mg
  Na in filtrate: 3.880 mg
[2]; no saccharide = 100
  Ca in filtrate (%): 99%
  Ca total amount eluted (%): 97%
  K in filtrate (%): 96%
  K total amount eluted (%): 96%
  Mg in filtrate (%): 99%
  Mg total amount eluted (%): 98%
  Na in filtrate (%): 113%
  Na total amount eluted (%): 112%
[2]; sum of scum (Table 14) and filtrate (Table 15)
  Ca total amount eluted from 30 grams of pork: 1.047 mg
[2]; sum of scum and filtrate
  K total amount eluted from 30 grams of pork: 6.084 mg
  Mg total amount eluted from 30 grams of pork: 1.190 mg
  Na total amount eluted from 30 grams of pork: 4.117 mg

## OC[C@H]1O[C@@](CO)(O[C@H]2O[C@H](CO)[C@@H](O)[C@H](O)[C@H]2O)[C@@H](O)[C@@H]1O [Sucrose, sucrose]
[3]; saccharide 2% (w/w)
  Ash in scum: 0.013 g
  Ca in scum: 1.672 mg
  Fat in scum: 0.871 g
  Mg in scum: 2.475 mg
  Protein in scum: 0.170 g
  Weight of scum: 1.060 g
  Weight of scum RW (%) (relative weight): 97%
[1]
  Calcium in scum: 0.113 mg
  Magnesium in scum: 0.052 mg
  Potassium in scum: 0.025 mg
  Sodium in scum: 0.299 mg
  Weight of scum: 1.718 g
  Calcium in scum (%): 97%
  Magnesium in scum (%): 93%
  Potassium in scum (%): 109%
  Sodium in scum (%): 121%
  Weight of scum (%): 76%
[4]
  Calcium in filtrate: 12.683 mg
  Calcium in scum: 0.299 µg
  Magnesium in filtrate: 1.440 mg
  Magnesium in scum: 0.059 µg
  Potassium in filtrate: 0.655 mg
  Potassium in scum: 0.288 µg
  Sodium in filtrate: 3.213 mg
  Sodium in scum: 0.058 µg
  Weight of scum: 0.010 g
  Calcium in filtrate (%): 97%
  Calcium in scum (%): 73%
  Calcium, total amount eluted (%): 97%
  Magnesium in filtrate (%): 111%
  Magnesium in scum (%): 63%
  Magnesium, total amount eluted (%): 111%
  Potassium in filtrate (%): 93%
  Potassium in scum (%): 76%
  Potassium, total amount eluted (%): 93%
  Sodium in filtrate (%): 99%
  Sodium in scum (%): 29%
  Sodium, total amount eluted (%): 99%
  Weight of scum (%): 71%
  Calcium, total amount of minerals eluted: 12.683 mg
  Magnesium, total amount of minerals eluted: 1.440 mg
  Potassium, total amount of minerals eluted: 0.656 mg
  Sodium, total amount of minerals eluted: 3.213 mg
[5]
  Calcium in filtrate: 4.604 mg
  Calcium in scum: 0.886 µg
  Magnesium in filtrate: 6.954 mg
  Magnesium in scum: 0.542 µg
  Potassium in filtrate: 0.825 mg
  Potassium in scum: 0.726 µg
  Sodium in filtrate: 1.918 mg
  Sodium in scum: 0.461 µg
  Weight of scum: 0.022 g
  Calcium in filtrate (%): 104%
  Calcium in scum (%): 78%
  Calcium, total amount eluted (%): 104%
  Magnesium in filtrate (%): 100%
  Magnesium in scum (%): 64%
  Magnesium, total amount eluted (%): 100%
  Potassium in filtrate (%): 106%
  Potassium in scum (%): 60%
  Potassium, total amount eluted (%): 106%
  Sodium in filtrate (%): 98%
  Sodium in scum (%): 56%
  Sodium, total amount eluted (%): 98%
  Weight of scum (%): 65%
  Calcium, total amount of minerals eluted: 4.605 mg
  Magnesium, total amount of minerals eluted: 6.955 mg
  Potassium, total amount of minerals eluted: 0.825 mg
  Sodium, total amount of minerals eluted: 1.919 mg

## OC[C@H]1O[C@H](O[C@H]2O[C@H](CO)[C@@H](O)[C@H](O)[C@H]2O)[C@H](O)[C@@H](O)[C@@H]1O [Trehalose, α,α-trehalose]
[3]; saccharide 2% (w/w)
  Ash in scum: 0.009 g
  Ca in scum: 1.613 mg
  Fat in scum: 0.406 g
  Mg in scum: 0.810 mg
  Protein in scum: 0.076 g
  Weight of scum: 0.506 g
  Weight of scum RW (%) (relative weight): 46%
[3]; saccharide 10% (w/w)
  Ash in scum: 0.005 g
  Ca in scum: 1.593 mg
  Fat in scum: 0.244 g
  Mg in scum: 0.156 mg
  Protein in scum: 0.048 g
  Weight of scum: 0.315 g
  Weight of scum RW (%) (relative weight): 29%
[1]
  Calcium in scum: 0.048 mg
  Magnesium in scum: 0.011 mg
  Potassium in scum: 0.017 mg
  Sodium in scum: 0.182 mg
  Weight of scum: 0.579 g
  Calcium in scum (%): 41%
  Magnesium in scum (%): 20%
  Potassium in scum (%): 74%
  Sodium in scum (%): 74%
  Weight of scum (%): 26%
[4]
  Calcium in filtrate: 11.928 mg
  Calcium in scum: 0.156 µg
  Magnesium in filtrate: 0.628 mg
  Magnesium in scum: 0.034 µg
  Potassium in filtrate: 0.615 mg
  Potassium in scum: 0.300 µg
  Sodium in filtrate: 3.314 mg
  Sodium in scum: 0.074 µg
  Weight of scum: 0.008 g
  Calcium in filtrate (%): 91%
  Calcium in scum (%): 38%
  Calcium, total amount eluted (%): 91%
  Magnesium in filtrate (%): 48%
  Magnesium in scum (%): 37%
  Magnesium, total amount eluted (%): 48%
  Potassium in filtrate (%): 87%
  Potassium in scum (%): 79%
  Potassium, total amount eluted (%): 87%
  Sodium in filtrate (%): 103%
  Sodium in scum (%): 37%
  Sodium, total amount eluted (%): 103%
  Weight of scum (%): 57%
  Calcium, total amount of minerals eluted: 11.928 mg
  Magnesium, total amount of minerals eluted: 0.628 mg
  Potassium, total amount of minerals eluted: 0.615 mg
  Sodium, total amount of minerals eluted: 3.314 mg
[5]
  Calcium in filtrate: 3.850 mg
  Calcium in scum: 0.553 µg
  Magnesium in filtrate: 3.264 mg
  Magnesium in scum: 0.501 µg
  Potassium in filtrate: 0.752 mg
  Potassium in scum: 0.804 µg
  Sodium in filtrate: 1.879 mg
  Sodium in scum: 0.727 µg
  Weight of scum: 0.022 g
  Calcium in filtrate (%): 87%
  Calcium in scum (%): 48%
  Calcium, total amount eluted (%): 87%
  Magnesium in filtrate (%): 47%
  Magnesium in scum (%): 61%
  Magnesium, total amount eluted (%): 47%
  Potassium in filtrate (%): 97%
  Potassium in scum (%): 67%
  Potassium, total amount eluted (%): 97%
  Sodium in filtrate (%): 96%
  Sodium in scum (%): 88%
  Sodium, total amount eluted (%): 96%
  Weight of scum (%): 65%
  Calcium, total amount of minerals eluted: 3.851 mg
  Magnesium, total amount of minerals eluted: 3.265 mg
  Potassium, total amount of minerals eluted: 0.753 mg
  Sodium, total amount of minerals eluted: 1.879 mg
[6]
  Magnesium in filtrate: 51.9 µg
